# Library screening results

Chains of the proteins cited; added tags and fusions are not shown.
UniProt E9BF75, entry or part of it: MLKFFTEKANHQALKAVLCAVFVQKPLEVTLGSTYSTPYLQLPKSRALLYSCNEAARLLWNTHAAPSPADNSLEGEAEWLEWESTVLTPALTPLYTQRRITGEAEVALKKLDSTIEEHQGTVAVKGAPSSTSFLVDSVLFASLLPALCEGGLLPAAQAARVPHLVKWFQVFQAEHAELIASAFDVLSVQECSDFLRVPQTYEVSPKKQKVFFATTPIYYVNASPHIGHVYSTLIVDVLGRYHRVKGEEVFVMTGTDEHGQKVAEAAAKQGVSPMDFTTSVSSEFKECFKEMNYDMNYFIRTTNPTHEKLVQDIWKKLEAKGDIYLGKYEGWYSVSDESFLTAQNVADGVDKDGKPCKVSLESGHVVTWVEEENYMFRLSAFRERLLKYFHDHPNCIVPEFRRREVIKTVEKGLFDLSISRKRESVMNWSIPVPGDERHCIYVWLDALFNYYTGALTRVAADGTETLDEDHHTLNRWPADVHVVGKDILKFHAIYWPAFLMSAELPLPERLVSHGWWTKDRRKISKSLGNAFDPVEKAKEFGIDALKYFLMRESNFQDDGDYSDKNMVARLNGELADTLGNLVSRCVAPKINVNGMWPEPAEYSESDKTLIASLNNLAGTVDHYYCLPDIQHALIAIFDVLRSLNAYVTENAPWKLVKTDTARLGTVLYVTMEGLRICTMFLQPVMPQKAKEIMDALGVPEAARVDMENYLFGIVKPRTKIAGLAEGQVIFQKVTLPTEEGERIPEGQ

From ChEMBL document CHEMBL3988442, “University of Dundee, Small-Polar-MMV Screening Library” (2021).

Mtb heat-shock: 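Assay on Mycobacterium tuberculosis, filed only as a heat shock assay from Cornell; the read-out is not stated. The concentration is filed as 10 mM, unlikely as a test dose, so the dose is not known. Direction is inferred from retests: higher values go with stronger inhibition. Size under these conditions: about 69,000 compounds, about 930 of them at 50% or above in at least one test.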
LdMetRS: 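Primary screen of methionyl-tRNA synthetase; the read-out is not stated. Target: Methionyl-tRNA synthetase (putative), Leishmania donovani (UniProt E9BF75). The test concentration is not given. The values are filed as inhibition. Size under these conditions: about 68,000 compounds, about 24 of them at 50% or above in at least one test.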
Mtb growth Cornell: 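Whole-cell assay for inhibitors of Mycobacterium tuberculosis growth, labelled Cornell in the record; the read-out is not stated. The concentration is filed as 10 mM, unlikely as a test dose, so the dose is not known. The record gives no direction; compounds strong in two other growth screens of this library score well above the rest, so higher reads as stronger inhibition. Size under these conditions: about 53,000 compounds, about 900 of them at 50% or above in at least one test.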

Results are percentages, as filed. The controls that fix the scale are not given in the record; negative values are as filed. Compounds were drawn at random from those tested, without regard to their results. A dash means the value is not listed here; it may have been measured.

Compound: O=C(NC1CCc2[nH]c(=O)ccc2C1)C1CCOCC1 (stereo not drawn)
Mtb heat-shock: -43.83
LdMetRS: -1.038
Mtb growth Cornell: -27.52

Compound: CC(C(=O)N1CCCCC1)N1CCN(c2nccs2)CC1 (stereo not drawn)
Mtb heat-shock: 7.38
LdMetRS: 8.657
Mtb growth Cornell: 3.89

Compound: O=C(O)C(F)(F)F.[H][C@@]12COC[C@]1(CN(C)C)CN(C(=O)c1ccc(F)cc1C)C2
Mtb heat-shock: -5.908
Mtb growth Cornell: 29.15

Compound: Cc1ccc(CC(=O)N2CCN(CC(O)C(C)(C)C)CC2)cn1 (stereo not drawn)
Mtb heat-shock: 3.486
LdMetRS: 9.836

Compound: CCOc1cc(C)nc(N2CCN(C(=O)c3cc(C)on3)CC2)n1
Mtb heat-shock: -16.01
LdMetRS: 24.02

Compound: CCOc1ccnc(N2CCN(C(=O)c3c(CC)noc3C)CC2)n1
Mtb heat-shock: -11.96
LdMetRS: 27.32

Compound: CC(C)(C)c1ccc(OCC(N)=O)c(CN2C[C@H]3C[C@H](O)C[C@H]3C2)c1
LdMetRS: 10.25

Compound: O=C(c1ccnnc1)N1CCC2(CC1)CC(N1CCOCC1)C2
Mtb heat-shock: -28.78
LdMetRS: -1.684
Mtb growth Cornell: -8.525

Compound: CCN1CCC(CC(=O)NCCc2nc(O)cc(O)n2)CC1
Mtb heat-shock: -8.971
LdMetRS: 10.3
Mtb growth Cornell: -14.12

Compound: COC(=O)C(C)(C)NC(=O)C1CC(=O)N(C2CCCC2)C1 (stereo not drawn)
Mtb heat-shock: -32.07
LdMetRS: 20.5
Mtb growth Cornell: 2.221

Compound: Cc1ccc(S(=O)(=O)NC(CO)CC(C)C)cc1N(C)C (stereo not drawn)
Mtb heat-shock: -0.2122
LdMetRS: 7.283
Mtb growth Cornell: -11.83

Compound: Cl.Cl.c1cncc(COC[C@@H]2CCC[C@@]23CNCCO3)c1
Mtb heat-shock: 34.9
Mtb growth Cornell: -22.01

Compound: Cc1nc2c(c(=O)n1C)CCN(Cc1cc3cc[nH]c3cn1)CC2
Mtb heat-shock: -44.48
LdMetRS: 6.767

Compound: CCc1nc(C)c(C(=O)NCC2COc3cc(OC)ccc3C2)o1 (stereo not drawn)
Mtb heat-shock: 38.77
LdMetRS: 19.88
Mtb growth Cornell: 39.48

Compound: CN1C(=O)C(c2ccccc2)CC12CCN(CCO)CC2.O=C(O)C(F)(F)F (stereo not drawn)
Mtb heat-shock: -21.97
Mtb growth Cornell: 13.48

Compound: c1cc(NCc2ccncc2)nc(C2CCCNC2)c1 (stereo not drawn)
LdMetRS: 11.64

Compound: CCn1nnc2c1C(COCCN(C)C)CN(S(C)(=O)=O)C2.O=C(O)C(F)(F)F (stereo not drawn)
Mtb heat-shock: 0.2997
Mtb growth Cornell: 15.19

Compound: CC(C)c1nccc(CN(C)Cc2cnn(-c3ccccc3)c2)n1
Mtb heat-shock: -7.691
LdMetRS: 17.78
Mtb growth Cornell: -11.86

Compound: Clc1ccccc1-c1nc(CNC2CCc3ncnn3C2)co1 (stereo not drawn)
Mtb heat-shock: -24.85
LdMetRS: 11.68
Mtb growth Cornell: -41.84

Compound: Cc1ccc(C2CCCN2S(=O)(=O)N(C)Cc2cnn(C)c2)o1 (stereo not drawn)
Mtb heat-shock: 32.94
LdMetRS: -3.833
Mtb growth Cornell: -28.4

Compound: Cc1cc(CNC(=O)c2cc(C(C)C)n(C)n2)ccc1S(C)(=O)=O
Mtb heat-shock: -8.777
LdMetRS: 19.93
Mtb growth Cornell: 32.09

Compound: c1ccc(OCC2CC3(CCN(CC4CCOCC4)CC3)CO2)nc1 (stereo not drawn)
Mtb heat-shock: -27.44
LdMetRS: 3.17
Mtb growth Cornell: -28.73

Compound: c1cnn(C2CN(Cc3noc(C4CC4)n3)C2)c1
Mtb heat-shock: 16.06
LdMetRS: 19.03

Compound: COc1ccccc1NC(=O)NCC(O)c1ccc(F)cc1F (stereo not drawn)
Mtb heat-shock: -13.47
LdMetRS: 3.989
Mtb growth Cornell: -37

Compound: CCN1CCOCC12CCN(c1ccc(C#N)cc1)CC2
LdMetRS: 13.41

Compound: COc1cccc(-c2noc(C3CCN(Cc4ccccc4F)C3)n2)c1 (stereo not drawn)
LdMetRS: -2.184

Compound: NC(=O)c1ccc(C2CCCNC2)nc1 (stereo not drawn)
LdMetRS: 9.032

Compound: O=C(c1ccc(-c2ccc(O)nc2)s1)N1CCCCC1
Mtb heat-shock: 10.82
LdMetRS: 23.37

Compound: CC(C)c1nc2cc(NC(=O)c3n[nH]c4c3CCC4)ccc2n1C
Mtb heat-shock: 7.873
LdMetRS: 15.55
Mtb growth Cornell: 41.48

Compound: CN1CCN(C(=O)C2CCCN(c3cccnn3)C2)CC1 (stereo not drawn)
Mtb heat-shock: 23.28
LdMetRS: 9.646
Mtb growth Cornell: -14.42

Compound: CC1CCCCN1C(=O)c1n[nH]c(=O)c2ccccc12 (stereo not drawn)
Mtb heat-shock: -14.07
LdMetRS: 2.87

Compound: CC(C)N1CCOCC2(CN(Cc3cccs3)CCO2)C1 (stereo not drawn)
LdMetRS: 9.22

Compound: CC(=O)N1CCCC1C(=O)NCCOc1ccc(C(C)C)cc1 (stereo not drawn)
Mtb heat-shock: 3.502
LdMetRS: 18.75

Compound: CN(Cc1cnn(C)c1)C(=O)C1COc2ccccc2C1 (stereo not drawn)
Mtb heat-shock: -10.06
LdMetRS: 6.933

Compound: O=C(Nc1ccccn1)c1cncc(C2CCNCC2)n1
LdMetRS: 5.249

Compound: CC(C)CN1CCC(NC(C)c2ccccc2-n2cccn2)CC1 (stereo not drawn)
Mtb heat-shock: -9.956
LdMetRS: 9.296
Mtb growth Cornell: -8.576

Compound: Cc1nonc1CN(C)Cc1c[nH]nc1-c1ccc(F)cc1F
Mtb heat-shock: -19.25
LdMetRS: 12.81
Mtb growth Cornell: 1.696

Compound: CN(Cc1coc(-c2ccccc2)n1)C1CCCN(c2cccnn2)C1 (stereo not drawn)
Mtb heat-shock: -8.397
LdMetRS: 23.62

Some entries from above, unchanged:

Compound	Mtb heat-shock	LdMetRS	Mtb growth Cornell
Cc1ccc(C2CCCN2S(=O)(=O)N(C)Cc2cnn(C)c2)o1 (stereo not drawn)	32.94	-3.833	-28.4
CN(Cc1cnn(C)c1)C(=O)C1COc2ccccc2C1 (stereo not drawn)	-10.06	6.933	-
COC(=O)C(C)(C)NC(=O)C1CC(=O)N(C2CCCC2)C1 (stereo not drawn)	-32.07	20.5	2.221